# In PubChem BioAssay AID1688 (National Center for Advancing Translational Sciences (NCATS), 2009):
# Out of some 220,000 compounds screened, about 2,400 (1.1%) were called active. The inconclusive results got no clear call from the source; some entries with a clear call stand among them for comparison. Calls follow the shape of the dose curve; as a rule, active = well fitted inhibition curve with a large enough effect; inconclusive = small, poorly fitted or top-dose-only effect, or effect the other way; inactive = no such curve, though single readings can be large or run the other way. Potencies beside an inconclusive call are fits to weak or partial responses and may not hold up.
# Experiment: qHTS Multiplex Assay to Identify Dual Action Probes in a Cell Model of Huntington: Aggregate Formation (GFP); also: nearly all actives have a fitted effect of over 60% in size
# Details: PC12 HttQ103-GFP aggregates, Acumen cytometry, 40 h; activity change, negative = inhibition: at 46.1 µM (top of the series) unless noted
# In short: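 Inducible Q103 Huntingtin exon 1–GFP PC12 line, 1500 cells/well in phenol red free DMEM with 5% equine and 5% calf serum. Tebufenozide 100 nM induced expression; compounds titrated; aggregates quantified by cytometry.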
# % is scaled to controls: 0 for no effect and ±100 for the full control effect; potency is read from the fitted curve at half-maximal effect.
SMILES,Potency,"activity change, negative = inhibition"
Cc1ccc2nc(NCc3ccccc3)[nH]c2c1,"inconclusive: 25.1 µM [inhibitor, single point]",–
CC(C)C(=O)N(c1cc2sc(=O)oc2c2ccccc12)S(=O)(=O)c1cccs1,"inconclusive: 0.562 µM [inhibitor, partial curve, poor fit]",–
COc1cc([N+](=O)[O-])cc(/C=N/NC(=O)c2ccc(NC(=O)c3ccc(C)cc3)cc2)c1O,"inconclusive: 3.16 µM [inhibitor, single point]",–
OCCN1CCN(CC(O)COc2ccc(C34CC5CC(CC(C5)C3)C4)cc2)CC1 (centres undefined),"inconclusive: 35.5 µM [inhibitor, single point]",–
CCNC(=O)N1CCOCC1,"inconclusive: 0.562 µM [inhibitor, partial curve, poor fit]",–
O=C(CCl)Nc1cccc2ncccc12,"inconclusive: 35.5 µM [inhibitor, single point]",–
COc1ccc(NC(=O)CN2CCN(c3nc(-c4cccc(OC)c4)cs3)CC2)cc1,"inconclusive: 35.5 µM [inhibitor, single point]",–
COc1cc(/C=C2\CCCc3c2nc2ccccc2c3C(=O)O)cc(OC)c1O,–,inactive: -7.53% [at 9.22 µM]
COc1ccc(NC(=O)C2=NN(C3CCS(=O)(=O)C3)C(=O)CC2)cn1 (centres undefined),"inconclusive: 3.98 µM [inhibitor, partial curve]",–
CC1CN(CCOc2ccccc2-c2ccccc2)CC(C)O1 (centres undefined),"inconclusive: 22.4 µM [inhibitor, single point]",–
COc1ccc(-c2nc(O)c3cnccn23)cc1,"inconclusive: 25.1 µM [activator, single point]",–
CC(c1nnnn1C1CCCCC1)N(Cc1ccccc1)Cc1cccnc1 (centres undefined),"inconclusive: 35.5 µM [inhibitor, single point]",–
CCc1cccc(Nc2cc(C)nc3nc(C)nn23)c1,active: 35.5 µM,–
O=C(C/C=N/OCc1ccc(Cl)cc1)c1cnc(-c2ccccc2)s1,"inconclusive: 35.5 µM [inhibitor, single point]",–
CNC(=O)COC(=O)/C=C/c1cn(-c2ccccc2)nc1-c1ccc2c(c1)OCCO2,"inconclusive: 11.2 µM [inhibitor, partial curve]",–
COC(=O)c1c(C)[nH]c(C)c1-c1ccc([N+](=O)[O-])cc1,"inconclusive: 25.1 µM [inhibitor, single point]",–
Cc1cccc(NC(=O)COc2ccc(/C=C\c3[nH]c(=O)[nH]c(=O)c3[N+](=O)[O-])cc2)c1,–,inactive: 14.5% [at 9.22 µM]
COc1cc2c(cc1OC)C(C)N(C(=S)Nc1ccccc1)CC2 (centres undefined),"inconclusive: 3.16 µM [inhibitor, single point]",–
Fc1ccc(NC(=S)Nc2ccccc2Cl)cc1,–,inactive: 0.953%
CC(CCc1ccccc1)NC(=O)CNC(=S)N(Cc1cccs1)C1CCCC1 (centres undefined),"inconclusive: 35.5 µM [inhibitor, single point]",–
Cc1nn(-c2ccccc2)c2c1C1(C(=O)Nc3ccccc31)N1C(=N2)Sc2ccccc21 (centres undefined),"inconclusive: 22.4 µM [inhibitor, single point]",–
CCOc1ccc(-n2cc(-c3ccccc3)c3c(SC(C)C(=O)OC)ncnc32)cc1 (centres undefined),"inconclusive: 5.62 µM [inhibitor, single point]",–
CSc1nnc2c(n1)c(C)nn2-c1cccc(C)c1,–,inactive: -21.1%

# Entries from the list above containing four or more nitrogen atoms (eight):
SMILES,Potency,"activity change, negative = inhibition"
COc1cc([N+](=O)[O-])cc(/C=N/NC(=O)c2ccc(NC(=O)c3ccc(C)cc3)cc2)c1O,"inconclusive: 3.16 µM [inhibitor, single point]",–
COc1ccc(NC(=O)CN2CCN(c3nc(-c4cccc(OC)c4)cs3)CC2)cc1,"inconclusive: 35.5 µM [inhibitor, single point]",–
COc1ccc(NC(=O)C2=NN(C3CCS(=O)(=O)C3)C(=O)CC2)cn1 (centres undefined),"inconclusive: 3.98 µM [inhibitor, partial curve]",–
CC(c1nnnn1C1CCCCC1)N(Cc1ccccc1)Cc1cccnc1 (centres undefined),"inconclusive: 35.5 µM [inhibitor, single point]",–
CCc1cccc(Nc2cc(C)nc3nc(C)nn23)c1,active: 35.5 µM,–
Cc1cccc(NC(=O)COc2ccc(/C=C\c3[nH]c(=O)[nH]c(=O)c3[N+](=O)[O-])cc2)c1,–,inactive: 14.5% [at 9.22 µM]
Cc1nn(-c2ccccc2)c2c1C1(C(=O)Nc3ccccc31)N1C(=N2)Sc2ccccc21 (centres undefined),"inconclusive: 22.4 µM [inhibitor, single point]",–
CSc1nnc2c(n1)c(C)nn2-c1cccc(C)c1,–,inactive: -21.1%

# Part of the list above in a different format.
SMILES	Potency	activity change, negative = inhibition
COc1cc(/C=C2\CCCc3c2nc2ccccc2c3C(=O)O)cc(OC)c1O	–	inactive: -7.53% [at 9.22 µM]
CC(c1nnnn1C1CCCCC1)N(Cc1ccccc1)Cc1cccnc1 (centres undefined)	inconclusive: 35.5 µM [inhibitor, single point]	–

# The list continues:

SMILES,Potency,"activity change, negative = inhibition"
Cc1cc(C)n(CCN(C)Cc2nc(Cc3ccccc3F)no2)n1,"inconclusive: 5.62 µM [activator, single point]",–
O=C(c1cccc(Br)c1)N1CCN(C(=O)c2cccc(Br)c2)CC1,–,inactive: -4.95%
COc1ccc(Br)cc1[C@H]1[C@@H]2C=CCC[C@@]2(C)C(=O)N1Cc1ccccc1,"inconclusive: 2.82 µM [inhibitor, partial curve]",–
O=C(/C=C/c1ccc(Cl)cc1Cl)NCc1ccncc1,"inconclusive: 12.6 µM [inhibitor, single point]",–
Cc1cc(C)nc(NS(=O)(=O)c2ccc(N/C=C/C(=O)c3ccc(Cl)cc3)cc2)n1,–,inactive: 2.88%
CCOC(=O)C(Sc1nn(C)c(=S)s1)C(C)=O (centres undefined),"inconclusive: 5.62 µM [inhibitor, single point]",–
CC(CC(=O)O)CC(=O)Nc1cc([N+](=O)[O-])ccc1O (centres undefined),"inconclusive: 1 µM [activator, single point]",–
CCCCCCCCCCCCCCCC(O)C(N)CO (centres undefined),"inconclusive: 25.1 µM [inhibitor, single point]",–
C(=N\Nc1ccc2ccccc2n1)/c1ccc2c(c1)OCCO2,"inconclusive: 11.2 µM [inhibitor, single point]",–
CCc1ccc(NS(=O)(=O)c2ccc3[nH]cc(C(=O)N4CCc5ccccc54)c(=O)c3c2)cc1,–,inactive: -0.312%
O=c1c2c3nc4ccccc4nc3n(/N=C/c3cccs3)c2ncn1-c1ccccc1,active: 1.78 µM,–
Clc1ccc(CSc2ccc(-c3ccccn3)nn2)cc1,"inconclusive: 35.5 µM [inhibitor, single point]",–
O=C(Nc1ccc(Cl)cc1C(=O)Nc1ccncc1)c1ccco1,"inconclusive: 3.55 µM [inhibitor, partial curve]",–
CCCCNCc1cc(OC)c(OCC(N)=O)cc1Br,–,inactive: 5.41%
CC(=O)NS(=O)(=O)c1ccc(NC(=O)c2cc(-c3ccc(C)c(C)c3)nc3ccccc23)cc1,"inconclusive: 35.5 µM [inhibitor, single point]",–
Cc1ccc(C(=O)CCNc2ccc(Br)cc2)o1,"inconclusive: 15.8 µM [activator, partial curve, poor fit]",–
Cc1[nH][nH]c(=O)c1C(c1c(C)[nH][nH]c1=O)c1cn(Cc2ccc(Cl)c(Cl)c2)c2ccccc12,–,inactive: -6.28%
FC(F)(F)c1ccccc1NC(=S)Nc1cccc(Cl)c1,–,inactive: 19.5%
COc1ccc(OC)c(C(C)NC(=O)Nc2cccc(C(C)=O)c2)c1 (centres undefined),–,inactive: 10.5% [at 9.22 µM]
Cc1cccc(C(=O)O/N=C/c2c(Cl)n(C)c3ccccc23)c1,"inconclusive: 11.2 µM [inhibitor, single point]",–
O=C(CSc1ccccc1C(=O)O)c1ccc([N+](=O)[O-])cc1,–,inactive: -2.62%
CCCCC[n+]1ccn(C2=C([O-])c3ccccc3C(=O)/C2=N\S(=O)(=O)c2ccccc2)c1,"inconclusive: 22.4 µM [inhibitor, single point]",–
C=CCNC(=S)/C(=C(\[O-])c1ccc(Cl)cc1)[n+]1ccccc1,–,inactive: 3.76% [at 9.22 µM]

SMILES,Potency,"activity change, negative = inhibition"
COc1ccc(C(=O)COC(=O)c2cccnc2SC)cc1,"inconclusive: 2.24 µM [activator, full curve]",–
Cc1ccc(C)c(NNC(N)=S)c1,"inconclusive: 5.01 µM [activator, full curve, poor fit]",–
O/N=C/c1cc(Cl)ccc1OCc1cccc2ccccc12,"inconclusive: 35.5 µM [inhibitor, single point]",–
Cc1[nH]nc(-c2ccc(OCc3cnn(-c4ccccc4)c3)cc2O)c1Oc1ccc(Cl)cc1,"inconclusive: 3.98 µM [activator, single point]",–
CCOC(=O)c1c(NC(=O)C[n+]2ccc(N(C)C)cc2)sc(C)c1C,"inconclusive: 3.16 µM [inhibitor, full curve, poor fit]",–
O=C1S/C(=C/c2ccccc2)C(=O)N1CC(O)Cn1c2ccccc2c2ccccc21 (centres undefined),"inconclusive: 17.8 µM [activator, partial curve]",–
OC(COCC(F)(F)C(F)(F)C(F)(F)C(F)F)Cn1c2ccc(Cl)cc2c2cc(Cl)ccc21 (centres undefined),"inconclusive: 25.1 µM [inhibitor, single point]",–
O=C1NC(=S)S/C1=C\C=C\c1ccc([N+](=O)[O-])o1,"inconclusive: 5.01 µM [inhibitor, partial curve]",–
O=C(c1cc(COc2ccc3ncccc3c2)on1)N1CCCC(O)C1 (centres undefined),"inconclusive: 14.1 µM [inhibitor, single point]",–
Nc1ccc(C(=O)c2cccs2)cc1[N+](=O)[O-],–,inactive: 5.26% [at 9.22 µM]
O=C(c1cccs1)N1CCN=C1SCc1cccnc1,"inconclusive: 2.82 µM [activator, partial curve, poor fit]",–
COC(=O)C(C)Sc1nc2c(c(=O)n(C)c(=O)n2C)n1Cc1cccc(C)c1 (centres undefined),active: 28.2 µM,–
Cn1c(CCNC(=O)c2ccco2)nc2cc(NS(=O)(=O)c3ccccc3)ccc21,–,inactive: -18.9%
O=C(c1ccccc1)N1CCN(C(=O)C23CC4CC(CC(C4)C2)C3)CC1,"inconclusive: 0.891 µM [inhibitor, full curve, poor fit]",–
CCOC(=O)C1CCN(c2ncnc3c2oc2ccc(Br)cc23)CC1,–,inactive: 11.4%
CCCCn1nnnc1SCC(=O)Nc1ccc(F)cc1,–,inactive: -7.7%
C/C(CC(=O)Nc1cc(C)cc(C)c1)=N\NC(=O)c1ccccn1,"inconclusive: 25.1 µM [activator, single point]",–
c1ccc(N2CCN(c3nc4ccccc4n4nnnc34)CC2)cc1,"inconclusive: 20 µM [inhibitor, single point]",–
CCSc1nnc(NC(=O)c2c(-c3ccccc3Cl)noc2C)s1,–,inactive: 10.4%
CCC(=O)Nc1ccc(C(=O)NCCCn2ccnc2)cc1,"inconclusive: 0.562 µM [activator, full curve, poor fit]",–
Cc1cc(C)cc(N=Cc2ccc([N+](=O)[O-])s2)c1,–,inactive: -6.53%
Cn1cccc1Cc1nnc(SCC(=O)NCc2ccco2)n1-c1ccc(F)cc1,–,inactive: -1.34%
COc1ccc(Cl)cc1C(=O)N(Cc1nc(-c2cccc(C)c2)no1)C(C)C,"inconclusive: 35.5 µM [inhibitor, single point]",–
